From PubChem BioAssay AID336 (DTP/NCI, 2004)
The list does not hold the whole screen: it gathers some chemical classes. Not every dose and run of a compound is shown. T/C: endpoint of the treated group in % of that of the vehicle group. For survival time, the PubChem record calls one and a half times the control and up active, and a quarter to a half above the control has no call in these data; cut-offs in other NCI protocols can differ. Schedules are NCI's codes, read here as Q, the interval in days (D) or hours (H), X, the number of doses. Some T/C values are marked as having no survivor count here; that says nothing about deaths at the dose.

Tested on: BDF1 mice, P388/VCR leukemia ip, median survival T/C
Assay: NCI In Vivo Anticancer Drug Screen. Data for tumor model P388 Leukemia resistant to Vincristine; NSC 67574 (intraperitoneal) in B6D2F1 (BDF1) mice
Conditions: T/C endpoint: median survival time, higher T/C = longer survival
Protocol: The antitumor activity of compounds was measured in mice bearing transplantable tumors. Survival or tumor size were measured and the results are expressed as the measurement made in the treated group (T) divided by the measurement made in the vehicle treated control group (C). The tumor model used in this assay is P388 Leukemia resistant to Vincristine; NSC 67574 (intraperitoneal) in B6D2F1 (BDF1) mice

`CC(=O)OC[C@]12C[C@H](OC(=O)CC(C)C)C(C)=C[C@H]1OC1[C@H](O)[C@@H](OC(C)=O)[C@@]2(C)[C@@]12CO2` was tested, and the T/C (dose: 1.08 mg/kg/injection, schedule: Q04DX003 (ip), vehicle: saline + alcohol) was 100 % of control [survivor count not shown], the T/C (dose: 1.8 mg/kg/injection, schedule: Q04DX003 (ip), vehicle: saline + alcohol) was 100 % of control [survivor count not shown] and the T/C (dose: 3.0 mg/kg/injection, schedule: Q04DX003 (ip), vehicle: saline + alcohol) was 100 % of control [survivor count not shown]. The T/C (dose: 5.0 mg/kg/injection, schedule: Q04DX003 (ip), vehicle: saline + alcohol) was 97 % of control [survivor count not shown], the T/C (dose: 648.0 micrograms/kg/injection, schedule: Q04DX003 (sc), vehicle: saline + alcohol) was 106 % of control [survivor count not shown] and the T/C (dose: 1080.0 micrograms/kg/injection, schedule: Q04DX003 (sc), vehicle: saline + alcohol) was 104 % of control [survivor count not shown].
`CC(=O)OCC12CCC(C)=CC1OC1C(O)C(OC(C)=O)C2(C)C12CO2` (stereo not drawn) was tested, and the T/C (dose: 1.3 mg/kg/injection, schedule: Q04DX003 (sc), vehicle: saline + alcohol) was 106 % of control [survivor count not shown], the T/C (dose: 2.16 mg/kg/injection, schedule: Q04DX003 (sc), vehicle: saline + alcohol) was 108 % of control [survivor count not shown] and the T/C (dose: 4.32 mg/kg/injection, schedule: Q04DX003 (ip), vehicle: saline + alcohol) was 100 % of control [survivor count not shown]. For the same molecule, the T/C (dose: 7.2 mg/kg/injection, schedule: Q04DX003 (ip), vehicle: saline + alcohol) was 100 % of control [survivor count not shown].
With `C[C@@H](O)[C@H]1/C=C/C=C\C(=O)O[C@@H]2C[C@H]3O[C@@H]4[C@@H]5OC5(C)CCC4(COC(=O)[C@H]4O[C@]4(C)[C@@H](O)CO1)[C@]2(C)[C@]31CO1` (stereo partly drawn) the T/C (dose: 1.94 mg/kg/injection, schedule: Q04DX003 (sc), vehicle: other) was 105 % of control [survivor count not shown], the T/C (dose: 3.24 mg/kg/injection, schedule: Q04DX003 (sc), vehicle: other) was 106 % of control [survivor count not shown] and the T/C (dose: 5.4 mg/kg/injection, schedule: Q04DX003 (sc), vehicle: other) was 105 % of control [survivor count not shown].
